Assay results published in PubChem BioAssay (NCATS).
This list was built around the results that the source calls inconclusive (neither active nor inactive); the mix of calls is not that of the screen. Potencies beside an inconclusive call are fits to weak or partial responses and may not hold up. Activity calls are given as the source filed them. Calls follow the shape of the dose curve; as a rule, active = well fitted cell-killing curve with a large enough effect; inconclusive = small, poorly fitted or top-dose-only effect, or effect the other way; inactive = no such curve, though single readings can be large or run the other way.

assay: qHTS of pediatric cancer cell lines to identify multiple opportunities for drug repurposing: Confirmatory screen for MG 63 (6-TG R) cells (AID 1347119); conditions: MG-63 (6-TG resistant) osteosarcoma viability; series mostly up to 45.9 µM; also: nearly all actives have a fitted effect of over 55% in size
Source text: Drug repurposing or repositioning has been offered as a strategy for drug development in oncology programs. This approach has special potential for childhood cancers and other rare or orphan diseases, where the expected return on new drug development has been a disincentive to pharmaceuticals.
In this project we exploit the poly-pharmacology of drugs to discover new indications via phenotypic screening of a panel of 19 well-characterized cell lines derived from solid tumors seen in children and adolescents. The goal is to identify approved drugs with previously unrecognized anticancer properties that has the potential to reveal new mechanisms and biological processes involved in carcinogenesis or drug resistance. We employed a titration-based paradigm (quantitative high-throughput screening or qHTS), where all compounds were tested at multiple concentrations for their effect on cell viability. Concentration-response curves (CRCs) were derived directly from the primary screen, and both potency and efficacy values were used to identify compounds with robust bioactivity profiles. We screened the NIH Chemical Genomics Center (NCGC) Pharmaceutical Collection (NPC) and Mechanism Interrogation Plate (MIPE) small molecule collections of approved and investigational compounds against these cell lines; and measured metabolically active cells after 48 hours of compound treatment as a proxy for cell viability.
Assay Submitter: Nathalia J. Martinez, National Center for Advancing Translational Sciences, National Institutes of Health, Rockville, MD, USA; email: natalia.martinez@nih.gov
[1] Shen, M et al. Quantitative high-throughput phenotypic screening of pediatric cancer cell lines identifies multiple opportunities for drug repurposing. Oncotarget 2017 Dec 19;9(4):4758-4772. PMID 29435139.
The cells were obtained from University of North Carolina (UNC), Pediatric Preclinical Testing Program (PPT), and Coriell Institute (CI).
qHTS cell viability assay:
Cells were assayed in growth media at a density of 500-1,000 cells/well. Five microliters of cells were dispensed into 1,536-well, white, solid-bottom, TC-treated plates (Greiner Bio One) using a multidrop dispenser and incubated at 37 degrees C, 5% CO2, under a humidified atmosphere for 5 hours. Twenty-three nanoliters of compounds and controls (neutral control DMSO or positive control bortezomib at final concentration of 2.3 µM) were subsequently transferred by Kalypsys pintool. For primary screens, the MIPE collection was tested at 11-point dilutions (final concentrations range from 0.78 nM to 46 µM) and the NPC collection at 8-point dilutions (final concentrations range from 0.59 nM to 46 µM). Compounds tested in follow-up screens were assayed at 11-point dilutions. Cells were incubated for 48 hours, followed by addition of 3 µL of CellTiter-Glo (Promega). After a 15 min incubation at room temperature, samples were analyzed for luminescence intensity using a ViewLux High-throughput CCD imager equipped with clear filters.
Potency is read from the fitted curve at half-maximal effect.

Row | SMILES | Potency
1 | Cc1ccc(C(=O)Nc2cccc(C(F)(F)F)c2)cc1-c1ccc2nc(NCCN3CCOCC3)ncc2c1 | inconclusive: 2.93 µM [cytotoxic, full curve]
2 | CC(=O)OCC(=O)[C@@]12N=C(C)O[C@@H]1C[C@H]1[C@@H]3CCC4=CC(=O)C=C[C@]4(C)[C@H]3[C@@H](O)C[C@@]12C | inconclusive: 1.17 µM [cytotoxic, full curve, poor fit]
3 | CCN(CC)CCCC(C)Nc1ccnc2cc(Cl)ccc12 (stereo not given) | inconclusive: 10.4 µM [cytotoxic, single point]
4 | Nc1ccn([C@@H]2O[C@H](CO)[C@H](O)C2(F)F)c(=O)n1 | active: 2.33 µM
5 | C[C@@H]1C[C@H]2[C@@H]3C[C@H](F)C4=CC(=O)C(Cl)=C[C@]4(C)[C@@]3(F)[C@@H](O)C[C@]2(C)[C@@]1(O)C(=O)CO | inconclusive: 36.9 µM [cytotoxic, single point]
6 | CC(=O)O[C@]1(C(C)=O)CC[C@H]2[C@@H]3C[C@H](C)C4=CC(=O)CC[C@]4(C)[C@H]3CC[C@@]21C | inactive
7 | C[C@@H](Oc1cc(-c2cnn(C3CCNCC3)c2)cnc1N)c1c(Cl)ccc(F)c1Cl | active: 13.1 µM
8 | Cc1nc2cnc3ccc(C#Cc4cccnc4)cc3c2n1-c1ccc(C(C)(C)C#N)cc1 | inconclusive: 0.17 µM [cytotoxic, full curve]
9 | CC(=O)[C@H]1CC[C@H]2[C@@H]3C[C@H](C)C4=CC(=O)CC[C@]4(C)[C@H]3[C@@H](O)C[C@]12C | inconclusive: 11.7 µM [cytotoxic, single point]
10 | C[C@@H]1C[C@H]2[C@@H]3CCC4=CC(=O)C=C[C@]4(C)[C@@]3(F)[C@@H](O)C[C@]2(C)[C@H]1C(=O)CO | inconclusive: 10.4 µM [cytotoxic, partial curve]
11 | CN1CC[C@@H](c2c(O)cc(O)c3c(=O)cc(-c4ccccc4Cl)oc23)[C@@H](O)C1 | inconclusive: 1.04 µM [cytotoxic, full curve]
12 | CC(C)c1nn(-c2c(Cl)cccc2Cl)c2nc(Cc3ccc(OCCO)cc3)[nH]c(=O)c12 | inconclusive: 0.165 µM [cytotoxic, full curve]
13 | O=C(c1ccc(OCCN2CCCCC2)cc1)c1c(-c2ccc(O)cc2)sc2cc(O)ccc12 | inconclusive: 14.7 µM [cytotoxic, partial curve, poor fit]
14 | COc1cc(Nc2ncc(F)c(Nc3ccc4c(n3)N(COP(=O)(O)O)C(=O)C(C)(C)O4)n2)cc(OC)c1OC | active: 2.33 µM
15 | CCOC(=O)N1CCN([N+]([O-])=NOc2ccc([N+](=O)[O-])cc2C#N)CC1 | inconclusive: 5.85 µM [cytotoxic, partial curve]
16 | CC(C(=O)O)c1ccc2c(c1)CC(=O)c1ccccc1S2 (stereo not given) | inconclusive: 0.0657 µM [rising, full curve, poor fit]
17 | CCOC(=O)[C@H](CCc1ccccc1)N[C@@H](C)C(=O)N1CCCC1C(=O)O (stereo not given in full) | inconclusive: 6.57 µM [cytotoxic, full curve]
18 | CS(=O)(=O)c1ccc([C@@H](O)[C@@H](CO)NC(=O)C(Cl)Cl)cc1 | inconclusive: 5.85 µM [rising, full curve]
19 | CN(Cc1cnc2nc(N)nc(N)c2n1)c1ccc(C(=O)N[C@@H](CCC(=O)O)C(=O)O)cc1 | inactive
20 | CC(C)(C(=O)c1cccnc1)c1cccnc1 | inactive

Reprinted, entries 10 to 12
Row | SMILES | Potency
10 | C[C@@H]1C[C@H]2[C@@H]3CCC4=CC(=O)C=C[C@]4(C)[C@@]3(F)[C@@H](O)C[C@]2(C)[C@H]1C(=O)CO | inconclusive: 10.4 µM [cytotoxic, partial curve]
11 | CN1CC[C@@H](c2c(O)cc(O)c3c(=O)cc(-c4ccccc4Cl)oc23)[C@@H](O)C1 | inconclusive: 1.04 µM [cytotoxic, full curve]
12 | CC(C)c1nn(-c2c(Cl)cccc2Cl)c2nc(Cc3ccc(OCCO)cc3)[nH]c(=O)c12 | inconclusive: 0.165 µM [cytotoxic, full curve]

Carrying on.

Row | SMILES | Potency
21 | CS(=O)(=O)c1ccc(C(=O)Nc2ccc(Cl)c(-c3ccccn3)c2)c(Cl)c1 | inactive
22 | CC(C)C[C@H](NC(=O)[C@H](Cc1ccccc1)NC(=O)c1cnccn1)B(O)O | active: 0.0208 µM
23 | CS[C@H]1SC[C@@H]2C(=O)N(C)[C@H](C(C)C)C(=O)OC[C@H](NC(=O)c3cnc4ccccc4n3)C(=O)N[C@H](C)C(=O)N(C)[C@@H]1C(=O)N(C)[C@H](C(C)C)C(=O)OC[C@H](NC(=O)c1cnc3ccccc3n1)C(=O)N[C@H](C)C(=O)N2C | inactive
24 | CCC[C@H](Nc1nc(-c2ccc(NC(=O)NCC)c(OC)c2)ncc1C)c1cccnc1 | inconclusive: 0.233 µM [cytotoxic, full curve]
25 | COc1cc2c(Nc3ccc(Br)cc3F)ncnc2cc1OCC1CCN(C)CC1 | inactive
26 | CC(C(C)N1CC(=O)NC(=O)C1)N1CC(=O)NC(=O)C1 (stereo not given) | active: 5.22 µM
27 | COc1c(C)c2c(c(O)c1C/C=C(\C)CCC(=O)O)C(=O)OC2 | inconclusive: 1.04 µM [cytotoxic, full curve, poor fit]
28 | CCCCc1nc2cc(C=CC(=O)NO)ccc2n1CCN(CC)CC | active: 1.31 µM
29 | Nc1ncnc2c1ncn2[C@@H]1O[C@H](CO)[C@@H](O)[C@@H]1O | inconclusive: 10.4 µM [cytotoxic, full curve]
30 | Nc1ccc2cc3ccc(N)cc3nc2c1 | active: 23.3 µM
31 | CC#C[C@]1(O)CC[C@H]2[C@@H]3CCC4=CC(=O)CCC4=C3[C@@H](c3ccc(N(C)C)cc3)C[C@@]21C | inactive
32 | CCCC(=O)O[C@]1(C(=O)CO)CC[C@H]2[C@@H]3CCC4=CC(=O)CC[C@]4(C)[C@H]3[C@@H](O)C[C@@]21C | inconclusive: 36.9 µM [cytotoxic, single point]
33 | C=C1C[C@H]2[C@@H]3C=C(C)C4=CC(=O)CC[C@]4(C)[C@H]3CC[C@]2(C)[C@@]1(OC(C)=O)C(C)=O | inactive
34 | COc1ccc(-n2nc(C(N)=O)c3c2C(=O)N(c2ccc(N4CCCCC4=O)cc2)CC3)cc1 | inactive
35 | CCCCC(CC)CN=C(N)NC(N)=NCCCCCCN=C(N)NC(N)=NCC(CC)CCCC (stereo not given) | active: 2.93 µM
36 | O=C(c1cc(Cc2n[nH]c(=O)c3ccccc23)ccc1F)N1CCN(C(=O)C2CC2)CC1 | inactive
37 | CC(=O)[C@]1(O)Cc2c(O)c3c(c(O)c2[C@@H](O[C@H]2C[C@H](N)[C@@H](O)[C@H](C)O2)C1)C(=O)c1ccccc1C3=O | inconclusive: 0.465 µM [cytotoxic, full curve]
38 | CC[C@]12C=CCN3CC[C@@]4(c5cc([C@@]6(C(=O)OC)C[C@H]7C[C@@H](C(C)(F)F)CN(Cc8c6[nH]c6ccccc86)C7)c(OC)cc5N(C)[C@H]4[C@@](O)(C(=O)OC)[C@H]1OC(C)=O)[C@@H]32 | inactive
39 | Cc1cc(CS(=O)(=O)c2ccccc2)cc(OCc2ccc(CN3CCC[C@H]3CO)cc2)c1 | inconclusive: 36.9 µM [cytotoxic, single point]
40 | CC(=O)OCC(=O)[C@@]1(O)[C@H](C)C[C@H]2[C@@H]3CCC4=CC(=O)C=C[C@]4(C)[C@@]3(F)[C@@H](O)C[C@@]21C | inconclusive: 20.8 µM [cytotoxic, partial curve, poor fit]
